These results are taken from paper PMC7210271.

As usually defined, the Kd is the constant that tells how readily two partners part at equilibrium.

The test system of series [1] is DNMT3A WT MTase domain + DNMT3L C-terminal domain. Kind of series: ITC. As to conditions: ITC: 20 mM Tris-HCl pH 7.5, 100 mM NaCl, 5% glycerol, 4 C; recombinant protein; protein details: N-terminal His6-SUMO removed by ULP1.
The test system of series [2] is DNMT3A R882H MTase domain + DNMT3L C-terminal domain. Kind of series: ITC. To be noted: no appreciable binding, N.M.; ITC: 20 mM Tris-HCl pH 7.5, 100 mM NaCl, 5% glycerol, 4 C; recombinant protein; protein details: N-terminal His6-SUMO removed by ULP1.

For at least one entry, the source does not settle the construct or the ends of the probe. For some assays here: Negatives hold for the conditions tested.

Consider “GACGACGACGACGACGACGACGAC (double strand) [24-mer (GAC)8 DNA]”, for which the Kd in series [1] came to 9.8 µM. In series [2], the binding result was “no binding”.
